The whole screen tested about 1,000 compounds, of which about 410 (41%) were called active. So high a share suggests a set chosen from earlier hits. This list was built around the results that the source calls inconclusive (neither active nor inactive); the mix of calls is not that of the screen.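 Rule for the calls: active = fitted half-maximal inhibitory concentration no more than tenfold above the top dose tested; inconclusive = flat fit with 30 to 70% activity, or poor fit; inactive = half-maximal concentration beyond tenfold above the top dose.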
Assay: YIC intramolecular FRET probe signal interference, dose response, counter-screen for RanGTP-importin-beta inhibitor project, biochemical, fluorescence FRET (AID 435026)
Details: Purified YIC probe, intramolecular FRET ratio YFP/CFP; activity change, negative = inhibition: at 50 µM (top of the series)

Row | Compound | activity change, negative = inhibition | IC50
1 | O=C1/C(=C/c2cccs2)Sc2ccccc21 | inconclusive: -32.1% | –
2 | N=c1c(S(=O)(=O)c2ccc(Cl)cc2)cc2c(=O)n3ccccc3nc2n1Cc1cccnc1 | inconclusive: -62.7% | –
3 | Cc1cc(NC(=O)c2sc3ccccc3c2O)no1 | inconclusive: -72.6% | –
4 | NS(=O)(=O)c1ccc(N=Nc2c[nH]c(=O)c(O)c2)cc1 | – | inactive: > 50 µM

Reference: PubChem BioAssay AID435026 (Broad Institute, 2010)
